Taken from: PubChem BioAssay AID1159578 (Peter MacCallum Cancer Centre, 2015)

Assay: 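Knock-downs that alter how fast lymphatic endothelial cells migrate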 (primary screen)
System: human lymphatic endothelial cells
Knock-down reagent: siRNA pool against human genes, 40 nM
Timing: 48 h after transfection
Detection: 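High-content imaging of dye-stained cells in a scratch assay measures filled wound area and nuclei per well; duplicate means given as ratio to mock and robust z-score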
Reading the numbers: migration robust z-score: higher = faster migration into the scratch; nuclei per well: higher = more cells in the well
Hit rule: 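Migration changed when robust z exceeds 2 or falls below -2 and mean nuclei number is at least 3300; otherwise not called changed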
Meaning of the calls: active = migration changed; inactive = no migration change, or too few cells
Here is a random part of about 18,000 reagents tested. Over the whole deposit, about 1,030 (5.7%) got an active call. 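Inactive calls also include pools with fewer than 3300 nuclei, whose migration was not assessed.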 Raw values are not corrected between plates. Further read-outs or replicates are left out here.

DPYSL2 | migration robust z-score: -2.18; migration class with cell-count check: migration z below -2; enough cells; nuclei per well, duplicate mean: 5056; Call: active
ENTPD6 | migration robust z-score: 1.06; migration class with cell-count check: migration z between -2 and 2; enough cells; nuclei per well, duplicate mean: 4936; Call: inactive
USP33 | migration robust z-score: 0.02; migration class with cell-count check: migration z between -2 and 2; enough cells; nuclei per well, duplicate mean: 5584; Call: inactive
OSGEPL1 | migration robust z-score: -0.18; migration class with cell-count check: migration z between -2 and 2; enough cells; nuclei per well, duplicate mean: 5638; Call: inactive

2 entries from above, sorted by “nuclei per well, duplicate mean”, low to high:
ENTPD6 | migration robust z-score: 1.06; migration class with cell-count check: migration z between -2 and 2; enough cells; nuclei per well, duplicate mean: 4936; Call: inactive
USP33 | migration robust z-score: 0.02; migration class with cell-count check: migration z between -2 and 2; enough cells; nuclei per well, duplicate mean: 5584; Call: inactive

The list goes on.
TMSB4XP8 | migration robust z-score: 0.38; migration class with cell-count check: migration z between -2 and 2; enough cells; nuclei per well, duplicate mean: 5758; Call: inactive
TCEAL6 | migration robust z-score: -3.83; migration class with cell-count check: migration z below -2; enough cells; nuclei per well, duplicate mean: 3792; Call: active
FAM234A | migration robust z-score: -1.66; migration class with cell-count check: migration z between -2 and 2; enough cells; nuclei per well, duplicate mean: 6712; Call: inactive
RILPL1 | migration robust z-score: 1.42; migration class with cell-count check: migration z between -2 and 2; enough cells; nuclei per well, duplicate mean: 6535; Call: inactive
IFI44L | migration robust z-score: 0.13; migration class with cell-count check: migration z between -2 and 2; enough cells; nuclei per well, duplicate mean: 5392; Call: inactive
PKMYT1 | migration robust z-score: -0.29; migration class with cell-count check: migration z between -2 and 2; enough cells; nuclei per well, duplicate mean: 3648; Call: inactive
MEPE | migration robust z-score: 0.48; migration class with cell-count check: migration z between -2 and 2; enough cells; nuclei per well, duplicate mean: 6057; Call: inactive
HOXD13 | migration robust z-score: 1.06; migration class with cell-count check: migration z between -2 and 2; enough cells; nuclei per well, duplicate mean: 6430; Call: inactive
CDK5RAP1 | migration robust z-score: 0.16; migration class with cell-count check: migration z between -2 and 2; enough cells; nuclei per well, duplicate mean: 5167; Call: inactive
MANEAL | migration robust z-score: 0.89; migration class with cell-count check: migration z between -2 and 2; enough cells; nuclei per well, duplicate mean: 5178; Call: inactive
